# Data: US20170158761A1 (EWHA UNIVERSITY INDUSTRY COLLABORATION FOUNDATION, published 2017)
# No constants are given. Whether binding was seen depends on the method and setting. Some results given as binding are weak or reduced against the parent protein; the word gives no strength.
# T1: f-TCTP (full-length TCTP, monomer TCTP) (Pan troglodytes (Chimpanzee)) (UniProt A5A6K2)
# T1 sequence: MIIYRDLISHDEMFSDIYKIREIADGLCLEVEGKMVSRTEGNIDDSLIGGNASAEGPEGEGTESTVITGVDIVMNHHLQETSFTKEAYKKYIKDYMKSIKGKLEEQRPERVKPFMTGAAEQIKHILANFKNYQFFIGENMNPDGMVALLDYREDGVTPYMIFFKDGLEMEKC
# Tests used:
# [1] = target: T1, f-TCTP (full-length TCTP, monomer TCTP) (Pan troglodytes (Chimpanzee)); test: ELISA: biotinylated dTBP2 (0.01 to 10 µM) on streptavidin plate, TCTP protein at 0.2 µg/ml, anti-HRF rabbit antibody detection
# [2] = target: T1, f-TCTP (full-length TCTP, monomer TCTP) (Pan troglodytes (Chimpanzee)); test: ELISA on immobilised biotinylated dTBP2
binder,measurement,setting,value
WYVYPSM (biotin conjugated to the COOH-terminus) [biotinylated dTBP2 (dTCTP binding peptide 2)],binding,[1],binds
same,binding,[2],binds
